Measured values: the supplement of paper PMC10849652
This is one part of the list.

Sequences of proteins named here, by UniProt entry; tags and fusion partners are left off. A change or cut given only in a name is not applied to a line headed by its entry.
UniProt O75381, whole entry, looked up: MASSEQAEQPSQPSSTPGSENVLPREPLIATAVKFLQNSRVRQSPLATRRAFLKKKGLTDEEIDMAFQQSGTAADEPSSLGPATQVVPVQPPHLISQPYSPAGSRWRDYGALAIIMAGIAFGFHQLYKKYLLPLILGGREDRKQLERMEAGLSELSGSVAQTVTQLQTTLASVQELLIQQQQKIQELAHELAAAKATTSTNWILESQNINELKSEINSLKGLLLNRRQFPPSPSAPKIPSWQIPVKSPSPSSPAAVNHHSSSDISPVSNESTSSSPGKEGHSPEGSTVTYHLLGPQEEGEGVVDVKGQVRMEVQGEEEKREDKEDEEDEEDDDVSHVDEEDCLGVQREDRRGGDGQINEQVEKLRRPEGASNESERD
UniProt Q9H074: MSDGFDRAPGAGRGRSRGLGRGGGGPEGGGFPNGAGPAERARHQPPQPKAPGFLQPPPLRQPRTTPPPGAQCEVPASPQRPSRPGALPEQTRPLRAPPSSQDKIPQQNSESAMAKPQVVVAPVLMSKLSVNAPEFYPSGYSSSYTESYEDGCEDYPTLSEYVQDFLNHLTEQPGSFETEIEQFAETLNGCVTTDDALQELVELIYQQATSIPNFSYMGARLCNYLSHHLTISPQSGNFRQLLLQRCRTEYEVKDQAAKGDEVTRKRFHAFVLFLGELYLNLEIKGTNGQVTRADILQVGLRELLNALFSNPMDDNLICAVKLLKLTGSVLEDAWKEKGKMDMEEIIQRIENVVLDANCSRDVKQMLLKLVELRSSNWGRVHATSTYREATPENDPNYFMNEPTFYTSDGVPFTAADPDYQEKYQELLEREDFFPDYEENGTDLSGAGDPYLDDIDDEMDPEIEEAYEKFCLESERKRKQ
UniProt Q99497, whole entry, looked up: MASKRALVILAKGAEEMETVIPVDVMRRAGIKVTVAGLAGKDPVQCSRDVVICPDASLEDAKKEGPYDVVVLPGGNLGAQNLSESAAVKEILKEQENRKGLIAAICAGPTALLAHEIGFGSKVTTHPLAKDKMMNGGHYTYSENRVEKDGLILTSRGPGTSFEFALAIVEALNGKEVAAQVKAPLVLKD
UniProt P61457: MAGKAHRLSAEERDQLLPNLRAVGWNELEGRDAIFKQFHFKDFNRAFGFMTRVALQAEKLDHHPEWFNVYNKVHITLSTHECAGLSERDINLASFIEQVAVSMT
UniProt Q8NBM8: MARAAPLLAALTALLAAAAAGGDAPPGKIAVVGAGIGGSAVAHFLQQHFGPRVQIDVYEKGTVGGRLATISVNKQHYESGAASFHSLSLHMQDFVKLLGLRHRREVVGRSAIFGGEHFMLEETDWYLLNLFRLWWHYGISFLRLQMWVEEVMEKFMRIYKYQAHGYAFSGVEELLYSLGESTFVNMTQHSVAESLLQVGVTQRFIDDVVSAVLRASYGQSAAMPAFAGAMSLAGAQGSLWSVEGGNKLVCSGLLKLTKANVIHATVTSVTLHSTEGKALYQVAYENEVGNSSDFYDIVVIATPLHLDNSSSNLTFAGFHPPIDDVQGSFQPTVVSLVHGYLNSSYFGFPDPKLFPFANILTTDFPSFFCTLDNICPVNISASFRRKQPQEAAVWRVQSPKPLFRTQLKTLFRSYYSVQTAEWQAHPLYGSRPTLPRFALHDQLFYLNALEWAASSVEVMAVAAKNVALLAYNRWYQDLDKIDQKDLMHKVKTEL
UniProt Q96RD7, whole entry, looked up: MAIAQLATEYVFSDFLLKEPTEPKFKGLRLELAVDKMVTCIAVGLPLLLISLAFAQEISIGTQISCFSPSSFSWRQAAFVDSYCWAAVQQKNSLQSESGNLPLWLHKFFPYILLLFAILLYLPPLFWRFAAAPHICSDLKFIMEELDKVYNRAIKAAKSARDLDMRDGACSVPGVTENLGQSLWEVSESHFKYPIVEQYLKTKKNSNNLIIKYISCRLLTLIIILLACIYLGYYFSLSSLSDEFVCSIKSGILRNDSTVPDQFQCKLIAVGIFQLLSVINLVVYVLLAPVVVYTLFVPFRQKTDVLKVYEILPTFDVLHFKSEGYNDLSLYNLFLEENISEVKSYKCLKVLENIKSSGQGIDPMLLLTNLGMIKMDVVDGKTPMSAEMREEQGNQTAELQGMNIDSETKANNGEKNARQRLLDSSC
UniProt Q9BVG4: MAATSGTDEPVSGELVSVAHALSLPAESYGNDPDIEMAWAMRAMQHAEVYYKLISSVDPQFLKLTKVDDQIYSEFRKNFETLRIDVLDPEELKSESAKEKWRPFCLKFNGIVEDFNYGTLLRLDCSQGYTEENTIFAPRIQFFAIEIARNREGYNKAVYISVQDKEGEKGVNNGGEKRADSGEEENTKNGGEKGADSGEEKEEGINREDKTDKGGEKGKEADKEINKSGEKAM
UniProt Q96AQ6: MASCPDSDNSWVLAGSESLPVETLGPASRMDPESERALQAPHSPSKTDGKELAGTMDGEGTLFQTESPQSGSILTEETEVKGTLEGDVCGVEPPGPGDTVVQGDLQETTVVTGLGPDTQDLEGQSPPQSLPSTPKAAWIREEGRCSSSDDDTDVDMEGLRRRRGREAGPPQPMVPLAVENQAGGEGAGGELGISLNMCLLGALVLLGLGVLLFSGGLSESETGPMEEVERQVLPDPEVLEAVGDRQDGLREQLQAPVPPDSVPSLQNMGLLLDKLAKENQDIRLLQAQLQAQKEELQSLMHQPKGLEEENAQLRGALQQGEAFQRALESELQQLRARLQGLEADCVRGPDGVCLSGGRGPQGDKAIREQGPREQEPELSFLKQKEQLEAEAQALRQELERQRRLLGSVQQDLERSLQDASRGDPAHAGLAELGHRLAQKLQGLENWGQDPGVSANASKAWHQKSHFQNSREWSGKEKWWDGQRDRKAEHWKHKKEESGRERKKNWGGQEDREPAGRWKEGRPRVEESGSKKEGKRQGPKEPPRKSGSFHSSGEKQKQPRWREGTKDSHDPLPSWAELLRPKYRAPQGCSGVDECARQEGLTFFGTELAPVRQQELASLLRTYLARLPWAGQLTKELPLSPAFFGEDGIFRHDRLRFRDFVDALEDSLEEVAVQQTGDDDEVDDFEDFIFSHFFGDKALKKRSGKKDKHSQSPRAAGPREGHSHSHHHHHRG
UniProt Q9BZ23: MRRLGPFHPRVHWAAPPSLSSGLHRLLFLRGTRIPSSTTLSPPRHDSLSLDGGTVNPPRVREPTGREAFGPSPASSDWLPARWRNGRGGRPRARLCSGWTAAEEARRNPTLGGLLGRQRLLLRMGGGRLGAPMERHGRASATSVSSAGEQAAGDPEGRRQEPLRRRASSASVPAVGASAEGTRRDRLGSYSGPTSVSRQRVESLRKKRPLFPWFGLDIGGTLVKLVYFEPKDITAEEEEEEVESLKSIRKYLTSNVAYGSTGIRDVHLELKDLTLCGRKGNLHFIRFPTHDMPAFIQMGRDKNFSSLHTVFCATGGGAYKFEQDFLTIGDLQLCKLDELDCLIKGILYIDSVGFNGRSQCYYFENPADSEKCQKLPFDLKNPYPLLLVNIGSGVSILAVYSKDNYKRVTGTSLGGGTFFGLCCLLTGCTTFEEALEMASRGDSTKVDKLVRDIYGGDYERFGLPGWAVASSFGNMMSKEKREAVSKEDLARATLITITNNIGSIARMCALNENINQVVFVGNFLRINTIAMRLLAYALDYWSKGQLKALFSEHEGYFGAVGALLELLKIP
UniProt Q8NEN9: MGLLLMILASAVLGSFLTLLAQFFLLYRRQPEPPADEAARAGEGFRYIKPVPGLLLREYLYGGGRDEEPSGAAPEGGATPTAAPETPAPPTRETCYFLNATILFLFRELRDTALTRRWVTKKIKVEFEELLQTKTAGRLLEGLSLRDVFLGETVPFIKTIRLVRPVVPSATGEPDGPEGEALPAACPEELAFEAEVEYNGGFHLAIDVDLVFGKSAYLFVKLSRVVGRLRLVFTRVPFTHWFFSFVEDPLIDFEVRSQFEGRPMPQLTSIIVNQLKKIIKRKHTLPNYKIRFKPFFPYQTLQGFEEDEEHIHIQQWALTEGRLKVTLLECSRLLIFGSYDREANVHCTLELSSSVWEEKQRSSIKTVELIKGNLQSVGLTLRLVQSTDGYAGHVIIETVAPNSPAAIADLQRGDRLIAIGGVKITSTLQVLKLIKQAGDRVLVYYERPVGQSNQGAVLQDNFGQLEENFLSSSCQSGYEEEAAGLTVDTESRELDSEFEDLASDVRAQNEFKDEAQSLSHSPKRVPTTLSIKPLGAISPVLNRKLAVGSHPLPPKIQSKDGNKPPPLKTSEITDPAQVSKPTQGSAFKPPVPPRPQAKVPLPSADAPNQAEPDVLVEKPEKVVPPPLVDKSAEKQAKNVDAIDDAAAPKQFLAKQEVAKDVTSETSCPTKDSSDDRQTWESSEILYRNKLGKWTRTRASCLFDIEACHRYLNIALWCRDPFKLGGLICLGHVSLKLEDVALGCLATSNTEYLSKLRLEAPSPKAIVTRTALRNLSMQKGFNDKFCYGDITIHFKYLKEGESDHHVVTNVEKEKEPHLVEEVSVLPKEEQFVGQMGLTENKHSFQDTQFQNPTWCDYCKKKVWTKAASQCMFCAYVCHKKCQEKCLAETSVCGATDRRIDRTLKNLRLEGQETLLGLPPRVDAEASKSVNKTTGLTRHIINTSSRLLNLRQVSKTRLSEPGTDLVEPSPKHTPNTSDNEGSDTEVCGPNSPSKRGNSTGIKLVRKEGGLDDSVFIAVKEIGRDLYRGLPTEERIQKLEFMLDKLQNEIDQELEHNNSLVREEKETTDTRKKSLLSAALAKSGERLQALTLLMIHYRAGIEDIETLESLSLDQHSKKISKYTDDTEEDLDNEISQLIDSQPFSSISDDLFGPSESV
UniProt P08559, whole entry, looked up: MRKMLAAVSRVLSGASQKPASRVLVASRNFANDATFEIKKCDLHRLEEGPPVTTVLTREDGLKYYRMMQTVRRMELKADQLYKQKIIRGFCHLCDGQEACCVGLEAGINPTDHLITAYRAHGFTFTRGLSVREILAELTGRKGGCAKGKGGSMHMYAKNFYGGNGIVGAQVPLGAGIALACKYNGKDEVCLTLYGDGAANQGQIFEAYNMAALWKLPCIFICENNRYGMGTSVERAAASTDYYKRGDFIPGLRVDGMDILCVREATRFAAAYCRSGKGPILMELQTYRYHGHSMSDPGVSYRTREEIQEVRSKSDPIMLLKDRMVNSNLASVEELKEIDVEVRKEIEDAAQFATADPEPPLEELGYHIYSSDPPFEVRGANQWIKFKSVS
UniProt Q9NWT1: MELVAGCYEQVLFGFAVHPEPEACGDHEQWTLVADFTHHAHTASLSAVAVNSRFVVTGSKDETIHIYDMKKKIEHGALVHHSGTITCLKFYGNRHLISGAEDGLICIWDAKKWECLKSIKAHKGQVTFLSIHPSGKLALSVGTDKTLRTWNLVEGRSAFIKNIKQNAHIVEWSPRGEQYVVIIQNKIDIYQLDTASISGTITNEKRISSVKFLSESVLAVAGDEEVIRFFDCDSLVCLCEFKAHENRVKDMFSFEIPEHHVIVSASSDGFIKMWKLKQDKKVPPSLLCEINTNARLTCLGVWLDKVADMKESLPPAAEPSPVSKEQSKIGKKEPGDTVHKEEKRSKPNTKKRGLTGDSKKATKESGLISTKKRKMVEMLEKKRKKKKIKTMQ
UniProt A6NDB9: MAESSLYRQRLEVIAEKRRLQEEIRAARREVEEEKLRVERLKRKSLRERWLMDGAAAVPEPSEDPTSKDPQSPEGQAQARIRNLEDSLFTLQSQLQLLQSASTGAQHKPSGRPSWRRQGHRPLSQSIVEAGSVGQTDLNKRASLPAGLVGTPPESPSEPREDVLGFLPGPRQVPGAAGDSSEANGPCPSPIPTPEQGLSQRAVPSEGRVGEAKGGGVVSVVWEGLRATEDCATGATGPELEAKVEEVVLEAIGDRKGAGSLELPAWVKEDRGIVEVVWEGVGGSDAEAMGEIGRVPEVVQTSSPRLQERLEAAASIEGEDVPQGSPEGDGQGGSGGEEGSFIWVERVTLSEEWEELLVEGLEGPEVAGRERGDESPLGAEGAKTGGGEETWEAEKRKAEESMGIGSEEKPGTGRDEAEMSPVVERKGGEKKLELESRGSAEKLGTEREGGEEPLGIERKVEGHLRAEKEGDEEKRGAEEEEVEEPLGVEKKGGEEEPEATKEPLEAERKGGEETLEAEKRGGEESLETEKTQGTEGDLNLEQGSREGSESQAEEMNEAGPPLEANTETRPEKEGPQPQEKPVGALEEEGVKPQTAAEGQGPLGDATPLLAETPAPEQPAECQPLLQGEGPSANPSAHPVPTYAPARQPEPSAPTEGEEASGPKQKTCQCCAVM
UniProt Q9BPZ3: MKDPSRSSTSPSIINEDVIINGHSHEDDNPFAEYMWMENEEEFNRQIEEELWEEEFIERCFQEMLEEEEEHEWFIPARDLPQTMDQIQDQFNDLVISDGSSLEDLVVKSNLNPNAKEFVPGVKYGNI

Legend:
Test in all cases: log2 fold change, soluble protein after heating vs DMSO (PISA); higher = thermal stabilisation; K562 cells, 10 uM, 30 min; active = over 0.2 and 3.5 SD of the protein, either way, in both replicates (recomputed)
[1] = compound: COC1=CC=C(C=C1)CN2C=CC3=C2C=C(C=C3)C(=O)NO
How it was run: (§1)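 K562 cells at 2×10^6 cells/mL were exposed to 10 μM compound for 30 min, then aliquots were heated for 3 min across 48°C-58°C, pooled, and extracted in PBS containing 0.5% NP-40 at 4°C. The supernatant after 21,000xg for 90 min was taken as soluble protein and measured by TMTpro 16plex LC-MS/MS with channel sums equalised. Thermal stability is reported relative to control samples, with values from duplicates. Fold changes are given on a log2 scale.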

filanesib = compound: CON(C)C(=O)N1N=C(c2cc(F)ccc2F)S[C@@]1(CCCN)c1ccccc1 [filanesib]
How it was run: as §1

zotarolimus = compound: CO[C@H]1C[C@@H]2CC[C@@H](C)[C@@](O)(O2)C(=O)C(=O)N2CCCC[C@H]2C(=O)O[C@H]([C@H](C)C[C@@H]2CC[C@H](n3cnnn3)[C@H](OC)C2)CC(=O)[C@H](C)/C=C(\C)[C@@H](O)[C@@H](OC)C(=O)[C@H](C)C[C@H](C)/C=C/C=C/C=C/1C [zotarolimus]
How it was run: as §1

idasanutlin = compound: COc1cc(C(=O)O)ccc1NC(=O)[C@@H]1N[C@@H](CC(C)(C)C)[C@](C#N)(c2ccc(Cl)cc2F)[C@H]1c1cccc(Cl)c1F [idasanutlin]
How it was run: as §1

alisertib = compound: COc1cc(Nc2ncc3c(n2)-c2ccc(Cl)cc2C(c2c(F)cccc2OC)=NC3)ccc1C(=O)O [alisertib]
How it was run: as §1

[2] = compound: COc1cc2nc(-c3cc(F)ccc3O)nc(N[C@@H]3CNC[C@H]3C(C)(C)O)c2cc1OC
How it was run: as §1

gefitinib = compound: COc1cc2ncnc(Nc3ccc(F)c(Cl)c3)c2cc1OCCCN1CCOCC1 [gefitinib]
How it was run: as §1

[3] = compound: COc1cccc2cc(-c3nc([C@H]4CC[C@H](C(=O)O)CC4)n4ncnc(N)c34)[nH]c12
How it was run: as §1

lapatinib = compound: CS(=O)(=O)CCNCc1ccc(-c2ccc3ncnc(Nc4ccc(OCc5cccc(F)c5)c(Cl)c4)c3c2)o1 [lapatinib]
How it was run: as §1

pictilisib = compound: CS(=O)(=O)N1CCN(Cc2cc3nc(-c4cccc5[nH]ncc45)nc(N4CCOCC4)c3s2)CC1 [pictilisib]
How it was run: as §1

[4] = compound: CS(=O)(=O)c1ccc(-c2cnc(N)c(C(=O)Nc3ccccc3)n2)cc1
How it was run: as §1

crizotinib = compound: C[C@@H](Oc1cc(-c2cnn(C3CCNCC3)c2)cnc1N)c1c(Cl)ccc(F)c1Cl [crizotinib]
How it was run: as §1

[5] = compound: C[C@@H]1COCCN1C2=NC(=NC(=C2)C3(CC3)S(=O)(=O)C)C4=C5C=CNC5=CC=C4
How it was run: as §1

[6] = compound: C[C@H](C1=CC=C(C=C1)C(=O)NC2=C3C=CNC3=NC=C2)N
How it was run: as §1

duvelisib = compound: C[C@H](Nc1ncnc2nc[nH]c12)c1cc2cccc(Cl)c2c(=O)n1-c1ccccc1 [duvelisib]
How it was run: as §1

gandotinib = compound: Cc1cc(Nc2cc(CN3CCOCC3)c3nc(C)c(Cc4ccc(Cl)cc4F)n3n2)n[nH]1 [gandotinib]
How it was run: as §1

tozasertib = compound: Cc1cc(Nc2cc(N3CCN(C)CC3)nc(Sc3ccc(NC(=O)C4CC4)cc3)n2)n[nH]1 [tozasertib]
How it was run: as §1

[7] = compound: Cc1cc(SCc2sc(-c3ccc(C(F)(F)F)cc3)nc2C)ccc1OCC(=O)O
How it was run: as §1

doramapimod = compound: Cc1ccc(-n2nc(C(C)(C)C)cc2NC(=O)Nc2ccc(OCCN3CCOCC3)c3ccccc23)cc1 [doramapimod]
How it was run: as §1

ispinesib = compound: Cc1ccc(C(=O)N(CCCN)[C@@H](c2nc3cc(Cl)ccc3c(=O)n2Cc2ccccc2)C(C)C)cc1 [ispinesib]
How it was run: as §1

Measured: log2 fold change

PEX14 (UniProt O75381)
inactive: [1] 0.096 | filanesib -0.021 | zotarolimus 0.001 | idasanutlin 0.014 | alisertib -0.004 | [2] 0.006 | gefitinib -0.011 | [3] 0.013 | lapatinib -0.026 | pictilisib -0.007 | [4] -0.012 | crizotinib 0.016 | [5] 0.053 | [6] -0.056 | duvelisib 0.028 | gandotinib 0 | tozasertib -0.001 | [7] 0.008 | doramapimod 0.077 | ispinesib 0.05

PAIP1 (UniProt Q9H074)
inactive: [1] 0.001 | filanesib -0.03 | zotarolimus 0.009 | idasanutlin -0.031 | alisertib -0.051 | [2] -0.023 | gefitinib -0.019 | [3] -0.009 | lapatinib 0.029 | pictilisib 0.016 | [4] -0.004 | crizotinib -0.039 | [5] -0.013 | [6] -0.022 | duvelisib 0.007 | gandotinib 0.001 | tozasertib 0.01 | [7] 0.019 | doramapimod 0.016 | ispinesib -0.023

PARK7 (UniProt Q99497)
inactive: [1] 0.059 | filanesib -0.079 | zotarolimus 0.039 | idasanutlin -0.084 | alisertib -0.032 | [2] -0.027 | gefitinib 0.001 | [3] -0.037 | lapatinib 0.027 | pictilisib -0.052 | [4] -0.042 | crizotinib 0.01 | [5] 0.044 | [6] -0.123 | duvelisib -0.011 | gandotinib -0.109 | tozasertib 0.004 | [7] 0.007 | doramapimod -0.001 | ispinesib 0.133

PCBD1 (UniProt P61457)
inactive: [1] -0.047 | filanesib 0.024 | zotarolimus -0.059 | idasanutlin 0 | alisertib -0.096 | [2] -0.045 | gefitinib 0.003 | [3] 0.069 | lapatinib -0.019 | pictilisib 0.035 | [4] 0.045 | crizotinib 0.068 | [5] 0.097 | [6] -0.088 | duvelisib 0.044 | gandotinib 0.064 | tozasertib -0.014 | [7] -0.008 | doramapimod 0.004 | ispinesib 0.11

PCYOX1L (UniProt Q8NBM8)
inactive: [1] -0.001 | filanesib 0.048 | zotarolimus -0.034 | idasanutlin -0.04 | alisertib -0.08 | [2] -0.041 | gefitinib 0.04 | [3] 0.039 | lapatinib 0.037 | pictilisib 0.021 | [4] -0.021 | crizotinib 0.138 | [5] 0.098 | [6] -0.023 | duvelisib 0.002 | gandotinib 0.016 | tozasertib 0.024 | [7] -0.028 | doramapimod 0.03 | ispinesib 0.166

PANX1 (UniProt Q96RD7)
inactive: [1] -0.047 | filanesib 0.007 | zotarolimus -0.011 | idasanutlin 0.001 | alisertib -0.095 | [2] 0.038 | gefitinib -0.021 | [3] 0.033 | lapatinib -0.021 | pictilisib 0.042 | [4] -0.014 | crizotinib 0.084 | [5] 0.084 | [6] -0.137 | duvelisib 0.095 | gandotinib -0.016 | tozasertib -0.024 | [7] 0.017 | doramapimod 0 | ispinesib 0.053

PDIA3 (UniProt P30101)
inactive: [1] 0.004 | filanesib 0.081 | zotarolimus 0.074 | idasanutlin 0.053 | alisertib -0.108 | [2] -0.012 | gefitinib 0.001 | [3] -0.102 | lapatinib 0.064 | pictilisib -0.119 | [4] -0.005 | crizotinib 0.005 | [5] -0.124 | [6] 0.138 | duvelisib -0.101 | gandotinib -0.032 | tozasertib 0.049 | [7] 0.022 | doramapimod 0.084 | ispinesib 0

PBDC1 (UniProt Q9BVG4)
inactive: [1] -0.068 | filanesib 0.007 | zotarolimus -0.041 | idasanutlin -0.034 | alisertib -0.058 | [2] 0.073 | gefitinib -0.025 | [3] -0.087 | lapatinib -0.006 | pictilisib 0.03 | [4] 0.002 | crizotinib -0.043 | [5] 0.007 | [6] 0.038 | duvelisib 0.008 | gandotinib -0.104 | tozasertib 0.03 | [7] 0.041 | doramapimod 0.019 | ispinesib 0.002

PBXIP1 (UniProt Q96AQ6)
inactive: [1] -0.009 | filanesib 0.017 | zotarolimus 0.038 | idasanutlin 0 | alisertib -0.018 | [2] -0.024 | gefitinib -0.011 | [3] 0.002 | lapatinib 0.002 | pictilisib 0.005 | [4] 0.008 | crizotinib 0.031 | [5] -0.012 | [6] 0.034 | duvelisib -0.015 | gandotinib -0.003 | tozasertib 0.021 | [7] 0.067 | doramapimod 0.045 | ispinesib -0.011

PDCD11 (UniProt Q14690)
inactive: [1] 0.051 | filanesib -0.136 | zotarolimus 0.014 | idasanutlin -0.262 | alisertib -0.032 | [2] 0.026 | gefitinib 0.045 | [3] 0.145 | lapatinib -0.065 | pictilisib 0.071 | [4] -0.054 | crizotinib -0.117 | [5] 0.196 | [6] 0.056 | duvelisib 0.053 | gandotinib -0.073 | tozasertib -0.132 | [7] -0.171 | doramapimod -0.03 | ispinesib -0.173

PANK2 (UniProt Q9BZ23)
inactive: [1] -0.022 | filanesib -0.144 | zotarolimus 0.069 | idasanutlin 0.103 | alisertib -0.06 | [2] 0.052 | gefitinib 0.013 | [3] 0.06 | lapatinib -0.04 | pictilisib 0.049 | [4] 0.046 | crizotinib 0.107 | [5] 0.06 | [6] -0.144 | duvelisib -0.015 | gandotinib 0.006 | tozasertib 0 | [7] 0.05 | doramapimod -0.024 | ispinesib -0.063

PDZD8 (UniProt Q8NEN9)
inactive: [1] -0.043 | filanesib -0.073 | zotarolimus 0 | idasanutlin -0.055 | alisertib 0.013 | [2] 0.03 | gefitinib -0.009 | [3] 0.063 | lapatinib -0.043 | pictilisib 0 | [4] -0.006 | crizotinib -0.031 | [5] 0.039 | [6] -0.008 | duvelisib 0.028 | gandotinib -0.253 | tozasertib -0.002 | [7] -0.004 | doramapimod 0.046 | ispinesib -0.019

Random excerpt: 2 entries already listed
PARK7 (UniProt Q99497)
inactive: [1] 0.059 | filanesib -0.079 | zotarolimus 0.039 | idasanutlin -0.084 | alisertib -0.032 | [2] -0.027 | gefitinib 0.001 | [3] -0.037 | lapatinib 0.027 | pictilisib -0.052 | [4] -0.042 | crizotinib 0.01 | [5] 0.044 | [6] -0.123 | duvelisib -0.011 | gandotinib -0.109 | tozasertib 0.004 | [7] 0.007 | doramapimod -0.001 | ispinesib 0.133

PCBD1 (UniProt P61457)
inactive: [1] -0.047 | filanesib 0.024 | zotarolimus -0.059 | idasanutlin 0 | alisertib -0.096 | [2] -0.045 | gefitinib 0.003 | [3] 0.069 | lapatinib -0.019 | pictilisib 0.035 | [4] 0.045 | crizotinib 0.068 | [5] 0.097 | [6] -0.088 | duvelisib 0.044 | gandotinib 0.064 | tozasertib -0.014 | [7] -0.008 | doramapimod 0.004 | ispinesib 0.11

Further results follow:

PDHA1 isoform 4 (UniProt P08559)
inactive: [1] 0.001 | filanesib 0.074 | zotarolimus 0.027 | idasanutlin -0.055 | alisertib -0.096 | [2] -0.026 | gefitinib -0.061 | [3] -0.125 | lapatinib 0.166 | pictilisib -0.091 | [4] 0.052 | crizotinib -0.041 | [5] -0.114 | [6] 0.206 | duvelisib -0.052 | gandotinib -0.005 | tozasertib 0.022 | [7] 0.197 | doramapimod 0.109 | ispinesib -0.113

PAK1IP1 (UniProt Q9NWT1)
inactive: [1] -0.111 | filanesib 0.283 | zotarolimus 0.02 | idasanutlin 0.167 | alisertib -0.104 | [2] -0.056 | gefitinib -0.082 | [3] -0.196 | lapatinib 0.127 | pictilisib -0.061 | [4] -0.067 | crizotinib 0.073 | [5] -0.476 | [6] 0.469 | duvelisib -0.202 | gandotinib 0.294 | tozasertib 0.054 | [7] 0.024 | doramapimod 0.34 | ispinesib -0.079

PALM3 (UniProt A6NDB9)
inactive: [1] 0.06 | filanesib 0.076 | zotarolimus 0.036 | idasanutlin 0.013 | alisertib -0.121 | [2] 0.02 | gefitinib 0.012 | [3] 0.046 | lapatinib 0.045 | pictilisib 0.116 | [4] 0.025 | crizotinib 0.036 | [5] 0.058 | [6] -0.062 | duvelisib 0.029 | gandotinib -0.028 | tozasertib -0.046 | [7] -0.12 | doramapimod -0.073 | ispinesib 0.123

PAIP2 (UniProt Q9BPZ3)
inactive: [1] -0.117 | filanesib 0.172 | zotarolimus -0.002 | idasanutlin -0.003 | alisertib 0.008 | [2] 0.042 | gefitinib -0.063 | [3] -0.13 | lapatinib -0.012 | pictilisib -0.152 | [4] -0.057 | crizotinib 0.012 | [5] -0.003 | [6] 0.182 | duvelisib 0.094 | gandotinib 0.036 | tozasertib 0.087 | [7] -0.016 | doramapimod 0.068 | ispinesib -0.101
